# Values of other authors as cited in patent US7429397B2, “Herbal formulation as memory enhancer in Alzheimer condition” (Council of Scientific and Industrial Research, priority 2004, dated 2008).
# For at least one compound, name, drawing or mass did not settle the structure.
# Test system: carrageenin-induced acute oedema
# Details: mice; cited from earlier work
smiles,measurement,value
COc1cc(/C=C/C(=O)CC(=O)/C=C/c2ccc(O)c(OC)c2)ccc1O [Curcumin],oral ED50,100.2 mg/kg
